Data reported in PMC8219694.
These are yes or no findings as the source states them, for the method shown. In cells and extracts the contact can be indirect. Some entries that bind do so weakly or less than the wild type.

Amino acid sequences for entries named in this document (tags omitted).
UniProt Q92830: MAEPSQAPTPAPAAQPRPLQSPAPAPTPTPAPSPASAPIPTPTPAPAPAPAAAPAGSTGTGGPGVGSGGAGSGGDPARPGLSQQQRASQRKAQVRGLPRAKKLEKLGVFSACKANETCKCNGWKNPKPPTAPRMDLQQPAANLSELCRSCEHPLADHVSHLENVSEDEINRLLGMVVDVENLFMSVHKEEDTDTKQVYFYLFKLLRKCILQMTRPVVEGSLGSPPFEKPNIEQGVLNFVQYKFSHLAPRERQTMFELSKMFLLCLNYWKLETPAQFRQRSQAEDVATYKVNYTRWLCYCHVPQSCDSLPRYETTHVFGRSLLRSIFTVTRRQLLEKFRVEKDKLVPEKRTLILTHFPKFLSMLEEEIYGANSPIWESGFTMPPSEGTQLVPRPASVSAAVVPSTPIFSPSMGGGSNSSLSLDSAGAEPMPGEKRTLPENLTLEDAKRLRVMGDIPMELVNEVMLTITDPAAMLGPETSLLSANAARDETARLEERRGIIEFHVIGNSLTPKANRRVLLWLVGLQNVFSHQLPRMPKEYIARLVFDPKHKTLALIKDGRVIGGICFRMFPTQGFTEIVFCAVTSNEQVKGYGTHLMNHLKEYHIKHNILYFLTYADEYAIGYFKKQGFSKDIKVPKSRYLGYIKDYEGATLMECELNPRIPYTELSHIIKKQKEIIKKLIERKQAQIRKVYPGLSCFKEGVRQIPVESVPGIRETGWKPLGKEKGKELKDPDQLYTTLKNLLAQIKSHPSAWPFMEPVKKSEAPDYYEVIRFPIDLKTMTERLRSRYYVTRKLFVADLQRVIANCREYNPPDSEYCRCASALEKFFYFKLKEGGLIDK

Target: T1, Peroxisome proliferator-activated receptor gamma coactivator 1-alpha (human (endogenous in PANC-1 and SW1990)) (UniProt Q9UBK2)
T1 sequence: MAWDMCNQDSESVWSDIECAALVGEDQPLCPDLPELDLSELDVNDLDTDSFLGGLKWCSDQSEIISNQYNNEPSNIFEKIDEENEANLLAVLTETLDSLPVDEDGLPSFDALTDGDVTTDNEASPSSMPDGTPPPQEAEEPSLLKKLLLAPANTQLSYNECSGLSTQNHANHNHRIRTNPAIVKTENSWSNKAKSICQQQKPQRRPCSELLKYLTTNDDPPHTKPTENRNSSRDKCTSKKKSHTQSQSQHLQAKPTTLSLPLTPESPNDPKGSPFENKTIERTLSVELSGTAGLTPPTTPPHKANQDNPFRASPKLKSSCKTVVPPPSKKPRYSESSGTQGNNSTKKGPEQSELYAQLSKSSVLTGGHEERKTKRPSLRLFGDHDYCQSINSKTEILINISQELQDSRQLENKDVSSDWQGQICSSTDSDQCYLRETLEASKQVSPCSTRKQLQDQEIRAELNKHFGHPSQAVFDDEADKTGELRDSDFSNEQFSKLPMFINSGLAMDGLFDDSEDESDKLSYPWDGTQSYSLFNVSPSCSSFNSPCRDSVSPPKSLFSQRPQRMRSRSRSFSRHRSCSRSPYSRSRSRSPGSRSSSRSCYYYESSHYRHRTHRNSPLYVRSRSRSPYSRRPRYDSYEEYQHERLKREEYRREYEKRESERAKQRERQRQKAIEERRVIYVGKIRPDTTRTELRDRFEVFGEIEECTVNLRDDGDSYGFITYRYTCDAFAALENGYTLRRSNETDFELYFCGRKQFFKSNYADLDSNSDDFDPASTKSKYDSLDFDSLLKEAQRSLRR
Assay: co-IP; lysates of PDAC cells (PANC-1, SW1990) in IP lysis buffer with 5 mM nicotinamide and 5 μM trichostatin A; antibodies cross-linked to Protein A/G magnetic beads, 1 h at room temperature; reciprocal IP for PGC-1α and SIRT1; cells with LINC00842 overexpression or silencing, RNase A or RNase III treatment, 5 or 25 mM glucose for 4 h

- binding: binds
Substance: PGC-1α acetyltransferase KAT2A (also named GCN5) (from UniProt Q92830 1-837) (enzyme)
